PubChem BioAssay AID1259305 | Sanger Institute, 2017

- Screen: 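Find kinase knock-downs that boost drug killing of colorectal cancer cells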 (follow-up of hits)
- Cells: human DIFI colorectal cancer cells
- Knock-down reagent: single siRNA against human genes
- Challenge: BYL719 1 µM, cetuximab 5 µg/ml or trametinib 10 nM, or DMSO vehicle, added one day after transfection; exposure time not given
- Measurement: 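Survival relative to a non-targeting siRNA control pool averaged across replicates, with synergy scores per drug weighing the combination against siRNA only and drug only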
- Scale: synergy score with BYL719 and synergy score with Cetuximab and synergy score with Trametinib: higher = stronger combined killing than expected; viability, knock-down alone: higher = more cells surviving knock-down
- Hit rule: 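An siRNA counts as synergistic (synthetic lethal) when its synergy score tops 0.10 for at least one of the three drugs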
The deposit covers 160 reagents; this is a part drawn at random. 96 of all reagents (60%) were called active. 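Each call covers one siRNA sequence in one cell line only; gene-level confirmation needs agreement across siRNAs and lines.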 Entries without a mark were called inactive. The numbers tell different reagents against one gene apart. No viability above 1 is reported: the scale is capped. Not all columns of the deposit are shown. The record does not give: the amount of reagent, the time to read-out.

gene symbol	reagent no.	synergy score with BYL719	synergy score with Cetuximab	synergy score with Trametinib	viability, knock-down alone
STK36 (GeneID 27148)	1	0.00295 (active)	0.0578	0.333	0.879
STK36 (GeneID 27148)	2	-0.0425 (active)	0.122	0.14	1
STK36 (GeneID 27148)	3	-0.0326	0.0377	0.0195	0.777
STK36 (GeneID 27148)	4	0.136 (active)	-0.0318	0.0539	0.854
IKBKB (GeneID 3551)	1	0.0951 (active)	0.156	0.222	0.823
IKBKB (GeneID 3551)	2	0.181 (active)	0.135	0.202	0.73
IKBKB (GeneID 3551)	3	0.0227 (active)	0.057	0.121	0.933
IKBKB (GeneID 3551)	4	-0.0597	0.0607	0.0269	0.75
SF3B1 (GeneID 23451)	1	-0.0145	-0.11	-0.0419	0.613
SF3B1 (GeneID 23451)	2	-0.0584	-0.102	0.00856	0.582
SF3B1 (GeneID 23451)	3	0.00135	-0.0342	-0.0145	0.873
SF3B1 (GeneID 23451)	4	0.00381	-0.0268	-0.0381	0.656
SYK (GeneID 6850)	1	0.157 (active)	0.0786	0.215	0.714
SYK (GeneID 6850)	2	-0.0895 (active)	0.222	0.226	0.937
SYK (GeneID 6850)	3	0.0511 (active)	0.148	0.229	0.824
SYK (GeneID 6850)	4	-0.127	0.0638	-0.197	1
NR2F2 (GeneID 7026)	1	-0.118 (active)	0.0786	0.155	1
NR2F2 (GeneID 7026)	2	-0.239	0.00583	-0.0471	1
NR2F2 (GeneID 7026)	3	-0.172 (active)	0.0925	0.108	1
NR2F2 (GeneID 7026)	4	0.049 (active)	0.231	0.232	0.864
PIK3CA (GeneID 5290)	1	0.00246	0.0535	0.095	0.708
PIK3CA (GeneID 5290)	2	-0.00969 (active)	0.119	0.278	0.774
PIK3CA (GeneID 5290)	3	-0.0869 (active)	0.12	0.321	0.946
PIK3CA (GeneID 5290)	4	-0.135 (active)	0.116	0.266	0.974
CDK6 (GeneID 1021)	1	0.198 (active)	0.103	0.109	0.966
CDK6 (GeneID 1021)	2	0.115 (active)	0.118	0.0762	0.683
CDK6 (GeneID 1021)	3	-0.0656	0.0581	0.0392	0.957
CDK6 (GeneID 1021)	4	-0.021 (active)	0.0691	0.17	0.969
PLK1 (GeneID 5347)	1	0.0604	0.023	0.0873	0.429
PLK1 (GeneID 5347)	2	0.077	0.00297	0.0512	0.357
PLK1 (GeneID 5347)	3	0.0915	0	0.037	0.42
PLK1 (GeneID 5347)	4	0.0697 (active)	0.0636	0.108	0.387
CAMK2N1 (GeneID 55450)	1	-0.0379	-0.131	-0.0702	0.632
CAMK2N1 (GeneID 55450)	2	0.349 (active)	0.0152	-0.0529	0.729
CAMK2N1 (GeneID 55450)	3	0.127 (active)	0.043	-0.158	0.963
CAMK2N1 (GeneID 55450)	4	-0.025	-0.0622	-0.086	0.54

2 consecutive entries from above:
gene symbol	reagent no.	synergy score with BYL719	synergy score with Cetuximab	synergy score with Trametinib	viability, knock-down alone
PIK3CA (GeneID 5290)	4	-0.135 (active)	0.116	0.266	0.974
CDK6 (GeneID 1021)	1	0.198 (active)	0.103	0.109	0.966
